Assay results: patent US11999746B2, “Compounds” (GlaxoSmithKline Intellectual Property Development Limited, priority 2014, dated 2024)
Some of these results come from one statement about several compounds together.

molecular target: recombinant human PLA2-VIIB (Homo sapiens, UniProt Q99487); test: (2b) Alternative PLA2 VIIB assay (2-thio-PAF substrate); type: biochemical; conditions: Examples 266-412 were tested here

Selectivity between human recombinant Lp-PLA2 and PLA2 VIIB, at least 100 fold:
CCOC(=O)C(C)N1CCN2c3cc(OCc4ccc(F)c(F)c4)nc(=O)n3CC2C1 (single isomer, unassigned) [Example E327, Ethyl 2-(7-((3,4-difluorobenzyl)oxy)-9-oxo-3,4,11,11a-tetrahydro-1H-pyrazino[1′,2′:3,4]imidazo[1,2-c]pyrimidin-2(9H)-yl)propanoate]
N#Cc1cc(COc2cc3n(c(=O)n2)C[C@H]2CC(O)CN32)ccc1F (stereo in doubt) [Example E381, 2-Fluoro-5-((((7R,8aR)-7-hydroxy-1-oxo-1,6,7,8,8a,9-hexahydropyrrolo[1′,2′:3,4]imidazo[1,2-c]pyrimidin-3-yl)oxy)methyl)benzonitrile]
CN1c2cc(OCc3ccc(F)c(F)c3)nc(=O)n2CC12COC2 [Example 398, 7-((3,4-Difluorobenzyl)oxy)-1-methyl-1H-spiro[imidazo[1,2-c]pyrimidine-2,3′-oxetan]-5(3H)-one]

molecular target: Recombinant human PLA2 VIIB (Novel Serine Dependent Lipase, NSDL) (Homo sapiens, UniProt Q99487); test: (2a) PLA2 VIIB assay (PED6 substrate); type: biochemical; conditions: Examples 1-9, 11-105, 107-193, 203-259 and 413-430 were tested here

Selectivity between human recombinant Lp-PLA2 and PLA2 VIIB, at least 100 fold:
Cc1ccc(Oc2c(F)cc(COc3cc4n(c(=O)n3)C[C@@H]3COCN43)cc2F)cn1 [Example E157, (R)-6-((3,5-difluoro-4-((6-methylpyridin-3-yl)oxy)benzyl)oxy)-10,10a-dihydro-1H-oxazolo[3′,4′:3,4]imidazo[1,2-c]pyrimidin-8(3H)-one]
CCn1cc(Oc2c(F)cc(COc3cc4n(c(=O)n3)C[C@@H]3COCN43)cc2F)cn1 [Example E158, (R)-6-((4-((1-ethyl-1H-pyrazol-4-yl)oxy)-3,5-difluorobenzyl)oxy)-10,10a-dihydro-1H-oxazolo[3′,4′:3,4]imidazo[1,2-c]pyrimidin-8(3H)-one]
Cc1ncc(Oc2c(F)cc(COc3cc4n(c(=O)n3)C[C@@H]3COCN43)cc2F)cn1 [Example E159, (R)-6-((3,5-difluoro-4-((2-methylpyrimidin-5-yl)oxy)benzyl)oxy)-10,10a-dihydro-1H-oxazolo[3′,4′:3,4]imidazo[1,2-c]pyrimidin-8(3H)-one]
CCn1cc(Oc2c(F)cc(COc3cc4n(c(=O)n3)C[C@H]3COCN43)cc2F)cn1 [Example E160, (S)-6-((4-((1-ethyl-1H-pyrazol-4-yl)oxy)-3,5-difluorobenzyl)oxy)-10,10a-dihydro-1H-oxazolo[3′,4′:3,4]imidazo[1,2-c]pyrimidin-8(3H)-one]
Cc1cc(Oc2c(F)cc(COc3cc4n(c(=O)n3)C[C@H]3COCN43)cc2F)ccn1 [Example E161, (S)-6-((3,5-difluoro-4-((2-methylpyridin-4-yl)oxy)benzyl)oxy)-10,10a-dihydro-1H-oxazolo[3′,4′:3,4]imidazo[1,2-c]pyrimidin-8(3H)-one]
CN1CCN2c3cc(OCc4cc(F)c(Oc5ccnc(C(F)(F)F)c5)c(F)c4)nc(=O)n3CC2C1 (stereo not shown) [Example E166, 7-((3,5-Difluoro-4-((2-(trifluoromethyl)pyridin-4-yl)oxy)benzyl)oxy)-2-methyl-3,4,11,11a-tetrahydro-1H-pyrazino[1′,2′:3,4]imidazo[1,2-c]pyrimidin-9(2H)-one]
CN1CCN2c3cc(OCc4cc(F)c(Oc5cnn(C)c5)c(F)c4)nc(=O)n3CC2C1 (stereo not shown) [Example E167, 7-((3,5-Difluoro-4-((1-methyl-1H-pyrazol-4-yl)oxy)benzyl)oxy)-2-methyl-3,4,11,11a-tetrahydro-1H-pyrazino[1,2′:3,4]imidazo[1,2-c]pyrimidin-9(2H)-one]
